Measurements reported in PubChem BioAssay AID1259292 (Sanger Institute, 2017).

Test: 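Kinase silencing that boosts cell killing by targeted cancer drugs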 (follow-up of hits)
Cell system: human colorectal cancer RCM1 cells
Reagent: single siRNA against human genes
Conditions: anchor drugs BYL719 at 1 µM, cetuximab at 5 µg/ml or trametinib at 10 nM, or DMSO vehicle; exposure time not given
Measurement: 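Replicate-averaged viability as a fraction of non-targeting pool 2 wells, under DMSO, BYL719 1 µM, cetuximab 5 µg/ml or trametinib 10 nM (time unstated), plus a synergy score for each drug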
Reading the numbers: synergy score with trametinib and synergy score with cetuximab and synergy score with BYL719: higher = stronger combined killing beyond expected (synthetic lethal); viability with siRNA alone (DMSO) and viability with siRNA plus trametinib: higher = more viable cells
Hit rule: 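Synergy called if the score for BYL719, cetuximab or trametinib, any one of them, exceeds 0.10; genes below this for all three show no synergy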
Meaning of the calls: active = synergy with at least one anchor drug; inactive = no synergy with any anchor drug
In all, the deposit lists 160 reagents; this is a part drawn at random. Of all reagents, 64 (40%) were called active. 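Four separate siRNAs per gene; a call can rest on any single drug, so look at each drug's score.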 The numbers tell different reagents against one gene apart. No viability above 1 is reported: the scale is capped. Not stated in the record: the amount of reagent, the time to read-out.

gene | siRNA no. | synergy score with trametinib | synergy score with cetuximab | synergy score with BYL719 | viability with siRNA alone (DMSO) (fraction of control) | viability with siRNA plus trametinib (fraction of control) | activity call
SF3B1 | 1 | -0.108 | -0.0859 | -0.12 | 0.66 | 0.513 | inactive
SF3B1 | 2 | 0.0609 | -0.0629 | 0.114 | 0.652 | 0.34 | active
SF3B1 | 3 | 0.0365 | -0.0647 | -0.045 | 0.914 | 0.525 | inactive
SF3B1 | 4 | -0.104 | -0.161 | -0.119 | 0.694 | 0.531 | inactive
SYK | 1 | 0.126 | -0.0626 | -0.00785 | 0.835 | 0.388 | active
SYK | 2 | 0.252 | 0.101 | -0.192 | 0.904 | 0.304 | active
SYK | 3 | 0.00984 | -0.0461 | -0.0278 | 0.405 | 0.239 | inactive
SYK | 4 | -0.169 | -0.0686 | -0.162 | 1 | 0.784 | inactive
PFKFB3 | 1 | -0.00843 | 0.214 | 0.0175 | 1 | 0.623 | active
PFKFB3 | 2 | 0.113 | 0.205 | -0.042 | 0.928 | 0.457 | active
PFKFB3 | 3 | -0.00598 | 0.0628 | -0.0792 | 1 | 0.621 | inactive
PFKFB3 | 4 | 0.0631 | -0.0118 | 0.00957 | 0.908 | 0.495 | inactive
IKBKB | 1 | 0.0881 | -0.0941 | -0.12 | 0.656 | 0.315 | inactive
IKBKB | 2 | -0.0109 | 0.0284 | -0.0138 | 0.805 | 0.506 | inactive
IKBKB | 3 | -0.109 | -0.00835 | 0.0112 | 0.938 | 0.686 | inactive
IKBKB | 4 | -0.123 | -0.215 | -0.217 | 0.752 | 0.585 | inactive
NLK | 1 | -0.159 | 0.0497 | -0.168 | 0.972 | 0.756 | inactive
NLK | 2 | 0.223 | 0.00738 | 0.0344 | 0.76 | 0.244 | active
NLK | 3 | -0.0771 | -0.22 | -0.305 | 0.822 | 0.582 | inactive
NLK | 4 | -0.159 | -0.0686 | -0.103 | 1 | 0.774 | inactive

Part of the list above, limited to “synergy score with trametinib”:
SYK #4 = -0.169
PFKFB3 #1 = -0.00843
PFKFB3 #2 = 0.113
